In paper PMC10981825:
No constants are given. Whether binding was seen depends on the method and setting. In cells and extracts the contact can be indirect. Some binding calls cover weakened binding; strength is not graded here.

Chains of the proteins cited; added tags and fusions are not shown. Residues count along the entry.
UniProt P46531, residues 19-2555: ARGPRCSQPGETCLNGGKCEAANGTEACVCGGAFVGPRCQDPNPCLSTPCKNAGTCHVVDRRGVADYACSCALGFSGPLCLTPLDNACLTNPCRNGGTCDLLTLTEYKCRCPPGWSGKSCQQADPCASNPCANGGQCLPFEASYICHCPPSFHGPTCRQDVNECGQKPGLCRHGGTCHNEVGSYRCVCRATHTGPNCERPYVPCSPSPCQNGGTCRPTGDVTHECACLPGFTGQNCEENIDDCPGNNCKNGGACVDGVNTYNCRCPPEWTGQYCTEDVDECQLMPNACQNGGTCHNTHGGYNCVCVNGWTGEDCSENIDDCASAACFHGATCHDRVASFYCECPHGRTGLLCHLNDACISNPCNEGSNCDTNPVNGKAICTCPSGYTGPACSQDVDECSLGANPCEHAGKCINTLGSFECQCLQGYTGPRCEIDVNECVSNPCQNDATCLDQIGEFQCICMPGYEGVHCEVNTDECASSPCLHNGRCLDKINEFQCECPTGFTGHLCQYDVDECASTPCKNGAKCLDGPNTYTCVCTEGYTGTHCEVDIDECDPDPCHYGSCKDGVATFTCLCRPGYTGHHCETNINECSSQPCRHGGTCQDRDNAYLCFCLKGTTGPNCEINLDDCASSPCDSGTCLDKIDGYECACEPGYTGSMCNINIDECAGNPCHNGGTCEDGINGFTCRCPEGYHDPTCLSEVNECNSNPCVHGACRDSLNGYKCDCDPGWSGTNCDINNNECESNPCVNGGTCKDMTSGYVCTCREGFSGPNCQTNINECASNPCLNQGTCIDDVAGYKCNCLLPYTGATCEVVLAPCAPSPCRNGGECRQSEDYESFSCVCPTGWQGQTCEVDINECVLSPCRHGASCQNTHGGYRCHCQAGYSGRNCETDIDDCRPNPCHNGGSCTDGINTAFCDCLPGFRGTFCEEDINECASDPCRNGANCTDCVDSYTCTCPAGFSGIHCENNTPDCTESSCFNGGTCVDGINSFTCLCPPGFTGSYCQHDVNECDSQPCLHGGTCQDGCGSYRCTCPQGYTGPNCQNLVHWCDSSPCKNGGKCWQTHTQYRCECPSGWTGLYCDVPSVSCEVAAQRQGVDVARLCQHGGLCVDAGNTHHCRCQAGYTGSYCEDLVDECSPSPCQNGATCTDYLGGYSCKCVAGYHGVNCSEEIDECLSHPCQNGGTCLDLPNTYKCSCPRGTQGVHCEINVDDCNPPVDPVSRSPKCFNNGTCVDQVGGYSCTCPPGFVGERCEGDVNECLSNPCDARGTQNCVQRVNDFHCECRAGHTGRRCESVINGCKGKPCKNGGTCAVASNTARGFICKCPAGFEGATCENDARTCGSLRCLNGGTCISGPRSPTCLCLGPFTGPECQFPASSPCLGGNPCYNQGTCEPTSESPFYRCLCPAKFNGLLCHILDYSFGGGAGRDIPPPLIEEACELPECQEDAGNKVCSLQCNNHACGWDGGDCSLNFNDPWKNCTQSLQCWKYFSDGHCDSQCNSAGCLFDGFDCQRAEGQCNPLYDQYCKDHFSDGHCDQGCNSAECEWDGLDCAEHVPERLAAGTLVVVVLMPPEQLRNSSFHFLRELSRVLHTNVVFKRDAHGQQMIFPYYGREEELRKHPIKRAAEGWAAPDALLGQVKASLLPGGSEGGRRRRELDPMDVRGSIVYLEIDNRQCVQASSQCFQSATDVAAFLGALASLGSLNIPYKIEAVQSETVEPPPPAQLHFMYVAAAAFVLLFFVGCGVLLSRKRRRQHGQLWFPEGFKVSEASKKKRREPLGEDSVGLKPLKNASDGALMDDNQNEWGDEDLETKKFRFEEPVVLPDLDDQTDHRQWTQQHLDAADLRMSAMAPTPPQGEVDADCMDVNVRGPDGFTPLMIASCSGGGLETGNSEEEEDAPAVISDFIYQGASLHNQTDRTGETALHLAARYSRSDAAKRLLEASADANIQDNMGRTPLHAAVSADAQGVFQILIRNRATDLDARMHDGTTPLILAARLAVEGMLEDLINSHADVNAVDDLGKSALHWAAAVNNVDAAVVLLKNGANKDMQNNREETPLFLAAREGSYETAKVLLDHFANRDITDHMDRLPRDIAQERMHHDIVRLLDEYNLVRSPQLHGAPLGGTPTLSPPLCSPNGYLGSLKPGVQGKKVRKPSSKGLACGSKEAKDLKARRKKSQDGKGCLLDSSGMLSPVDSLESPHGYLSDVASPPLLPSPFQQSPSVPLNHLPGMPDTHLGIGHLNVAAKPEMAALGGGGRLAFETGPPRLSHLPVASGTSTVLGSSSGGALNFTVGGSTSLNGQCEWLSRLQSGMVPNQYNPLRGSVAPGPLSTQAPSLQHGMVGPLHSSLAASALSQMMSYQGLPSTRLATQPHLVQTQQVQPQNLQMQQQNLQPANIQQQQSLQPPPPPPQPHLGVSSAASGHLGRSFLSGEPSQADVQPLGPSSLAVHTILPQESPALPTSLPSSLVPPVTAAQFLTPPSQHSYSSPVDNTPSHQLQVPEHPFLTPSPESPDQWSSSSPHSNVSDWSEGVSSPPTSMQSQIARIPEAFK
UniProt Q92830: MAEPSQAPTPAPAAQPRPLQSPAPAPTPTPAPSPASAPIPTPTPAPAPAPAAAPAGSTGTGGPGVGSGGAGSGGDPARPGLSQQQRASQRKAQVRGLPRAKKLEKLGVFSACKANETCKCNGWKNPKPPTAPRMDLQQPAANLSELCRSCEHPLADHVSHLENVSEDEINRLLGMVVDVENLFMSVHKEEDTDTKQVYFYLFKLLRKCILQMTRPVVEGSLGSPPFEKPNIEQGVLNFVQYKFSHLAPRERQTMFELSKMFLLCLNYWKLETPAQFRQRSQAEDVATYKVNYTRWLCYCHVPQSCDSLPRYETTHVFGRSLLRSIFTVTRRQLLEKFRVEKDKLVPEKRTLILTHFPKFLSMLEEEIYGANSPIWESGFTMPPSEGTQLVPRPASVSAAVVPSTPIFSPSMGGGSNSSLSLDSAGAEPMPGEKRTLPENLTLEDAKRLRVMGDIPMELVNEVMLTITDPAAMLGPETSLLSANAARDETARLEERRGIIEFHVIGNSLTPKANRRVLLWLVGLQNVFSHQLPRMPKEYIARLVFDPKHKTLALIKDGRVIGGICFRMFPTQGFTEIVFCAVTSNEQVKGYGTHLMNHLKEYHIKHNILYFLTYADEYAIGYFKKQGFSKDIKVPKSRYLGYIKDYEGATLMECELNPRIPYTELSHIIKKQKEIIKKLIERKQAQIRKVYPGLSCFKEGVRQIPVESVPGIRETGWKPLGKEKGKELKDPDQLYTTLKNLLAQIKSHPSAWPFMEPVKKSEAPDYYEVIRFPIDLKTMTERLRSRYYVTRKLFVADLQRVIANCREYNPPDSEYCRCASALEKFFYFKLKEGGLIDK

Molecular target: Notch1 (human (endogenous in DPSCs)) (UniProt P46531)
Assay: co-IP; anti-KAT2A, anti-Notch1 or normal IgG added to 1 mg DPSC lysate precleared with Protein G Agarose beads, 4 °C overnight; complexes analysed by western blot; endogenous proteins

- binding: binds
Substance: KAT2A (from UniProt Q92830 1-837) (enzyme)
